Experimental data as given in paper doi:10.1101/780460.

Amino acid sequences for entries named in this document (tags omitted). A change or cut given only in a name is not applied to a line headed by its entry. Chains listed by the source or under a name are the forms on record and can include a tag or linker. Residues count along the entry.
UniProt P00441: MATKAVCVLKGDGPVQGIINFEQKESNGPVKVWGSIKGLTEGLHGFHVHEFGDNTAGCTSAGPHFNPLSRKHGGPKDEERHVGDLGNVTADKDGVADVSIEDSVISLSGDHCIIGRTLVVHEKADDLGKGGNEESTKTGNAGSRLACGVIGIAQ
misfolded human SOD1^G93A at spinal cord mitochondria of SOD1^G93A rats (P00441, form named): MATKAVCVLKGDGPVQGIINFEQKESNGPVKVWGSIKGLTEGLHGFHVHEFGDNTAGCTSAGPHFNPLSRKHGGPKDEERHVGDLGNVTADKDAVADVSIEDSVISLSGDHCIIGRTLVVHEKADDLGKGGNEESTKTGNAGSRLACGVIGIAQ
UniProt P10719, residues 47-529: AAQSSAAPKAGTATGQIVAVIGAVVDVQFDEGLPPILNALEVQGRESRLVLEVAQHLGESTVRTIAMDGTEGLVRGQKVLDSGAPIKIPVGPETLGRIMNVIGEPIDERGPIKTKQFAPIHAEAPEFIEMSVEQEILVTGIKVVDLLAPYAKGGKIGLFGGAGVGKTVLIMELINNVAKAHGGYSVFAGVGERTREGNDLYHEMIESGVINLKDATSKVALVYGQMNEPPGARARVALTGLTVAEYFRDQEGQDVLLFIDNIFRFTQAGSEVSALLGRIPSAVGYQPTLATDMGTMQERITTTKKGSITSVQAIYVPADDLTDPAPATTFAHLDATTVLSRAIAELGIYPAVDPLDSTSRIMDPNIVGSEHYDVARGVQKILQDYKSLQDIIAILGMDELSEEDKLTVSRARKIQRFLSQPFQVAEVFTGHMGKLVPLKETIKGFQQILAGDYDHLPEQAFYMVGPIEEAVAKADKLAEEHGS
UniProt Q9Z2L0: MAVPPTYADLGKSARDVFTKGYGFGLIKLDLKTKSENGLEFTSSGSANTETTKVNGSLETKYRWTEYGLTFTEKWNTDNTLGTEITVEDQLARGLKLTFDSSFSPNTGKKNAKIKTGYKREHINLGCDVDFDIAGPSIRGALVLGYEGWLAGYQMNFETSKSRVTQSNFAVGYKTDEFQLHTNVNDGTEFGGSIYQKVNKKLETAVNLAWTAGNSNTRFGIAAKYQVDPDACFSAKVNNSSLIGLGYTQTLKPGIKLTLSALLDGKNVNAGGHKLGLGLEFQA

B1: TNF receptor-associated factor 6 (TRAF6), rat, endogenous (protein, UniProt B5DF45 1-530)
chain: MSLLNCENSCASSQSSSDCCAAMANSCSAAMKDDSVSGCVSTGNLSSSFMEEIQGYDVEFDPPLESKYECPICLMALREAVQTPCGHRFCKACITKSIRDAGHKCPVDNEILLENQLFPDNFAKREILSLTVKCPNKGCVQKMELRHLEDHQVHCEFALVICPQCQRFFQKCQINKHIIEDCPRRQVSCVNCAVPMPYEEKEIHDQSCPLANIICEYCGTILIREQMPNHYDLDCPTAPVPCTFSVFGCHEKMQRNHLARHLQENTQLHMRLLAQAVHNVNLSLRPCDASSPSRGCRPEDPNYEETVKQLEGRLVRQDHQIRELTAKMETQSMHVSELKRTIRSLEDKVAEMEAQQCNGIYIWKIGNFGMHLKSQEEERPVVIHSPGFYTGRPGYKLCMRLHLQLPTAQRCANYISLFVHTMQGEYDSHLPWPFQGTIRLTILDQSEAVIRQNHEEVMDAKPELLAFQRPTIPRNPKGFGYVTFMHLEALRQGTFIKDDTLLVRCEVSTRFDMGGLRKEGFQPRSTDAGV
B2: 2-oxoglutarate dehydrogenase (OGDH), rat, endogenous (protein, UniProt Q5XI78 41-1023)
chain: SAPVAAEPFLSGTSSNYVEEMYCAWLENPKSVHKSWDIFFRNTNAGAPPGTAYQSPLSLSRSSLATMAHAQSLVEAQPNVDKLVEDHLAVQSLIRAYQIRGHHVAQLDPLGILDADLDSSVPADIISSTDKLGFYGLHESDLDKVFHLPTTTFIGGQEPALPLREIIRRLEMAYCQHIGVEFMFINDLEQCQWIRQKFETPGIMQFTNEEKRTLLARLVRSTRFEEFLQRKWSSEKRFGLEGCEVLIPALKTIIDMSSANGVDYVIMGMPHRGRLNVLANVIRKELEQIFCQFDSKLEAADEGSGDMKYHLGMYHRRINRVTDRNITLSLVANPSHLEAADPVVMGKTKAEQFYCGDTEGKKVMSILLHGDAAFAGQGIVYETFHLSDLPSYTTHGTVHVVVNNQIGFTTDPRMARSSPYPTDVARVVNAPIFHVNSDDPEAVMYVCKVAAEWRNTFHKDVVVDLVCYRRNGHNEMDEPMFTQPLMYKQIRKQKPVLQKYAELLVSQGVVNQPEYEEEISKYDKICEEAFTRSKDEKILHIKHWLDSPWPGFFTLDGQPRSMTCPSTGLEEDILTHIGNVASSVPVENFTIHGGLSRILKTRRELVTNRTVDWALAEYMAFGSLLKEGIHVRLSGQDVERGTFSHRHHVLHDQNVDKRTCIPMNHLWPNQAPYTVCNSSLSEYGVLGFELGFAMASPNALVLWEAQFGDFNNMAQCIIDQFICPGQAKWVRQNGIVLLLPHGMEGMGPEHSSARPERFLQMCNDDPDVLPNLQEENFDISQLYDCNWIVVNCSTPGNFFHVLRRQILLPFRKPLIVFTPKSLLRHPEARTSFDEMLPGTHFQRVIPEDGPAAQNPDKVKRLLFCTGKVYYDLTRERKARDMAEEVAITRIEQLSPFPFDLLLKEAQKYPNAELAWCQEEHKNQGYYDYVKPRLRTTIDRAKPVWYAGRDPAAAPATGNKKTHLTELQRFLDTAFDLDAFKKFS
B3: ATP synthase F0 complex subunit β1 (ATP5F1), rat, endogenous (protein, UniProt P19511 43-256)
chain: PLPPLPEYGGKVRLGLIPEEFFQFLYPKTGVTGPYVLGTGLSLYFLSKEIYVITPETFSTISVVGLIVYVIKKYGASIGEFIDKLNEEKIAQLEEIKQSSMKQIQDAINREKAQQALVQKRHYLFDVQRNNIALALEVTYRERLHKAYKEVKNRLDYHISVQDMMRRKEGEHMINWVEKHVIQSISAQQEKETIAKCIGDLKMLAKKAQAQPIM

Assays:
[1] = target: misfolded human SOD1^G93A at spinal cord mitochondria of SOD1^G93A rats (human) (UniProt P00441); experiment: affinity purification with mass spectrometry
[2] = target: misfolded human SOD1^G93A at spinal cord mitochondria of SOD1^G93A rats (human) (UniProt P00441); experiment: affinity purification with mass spectrometry; remark: listed apart in the source

Row | Molecule | binding [1] | binding [2]
1 | ATP synthase subunit β (ATP5B), rat, endogenous (from UniProt P10719 47-529) | binds | 
2 | voltage-gated anion channel 1 (VDAC1), rat, endogenous (from UniProt Q9Z2L0 1-283) | binds | 
3 | B1 |  | binds
4 | B2 |  | binds
5 | B3 |  | binds

Where two headings read alike, the source gives them in different places. Results are given in words; binding and its absence hold for the method and conditions named. In cells and extracts the contact can be indirect. These calls come from enrichment with a bait or labelling near it, and not all partners need be listed.
